Data: the supplement of paper PMC8728848
This is one part of the list.

Columns and labels:
Test in all cases: glycan array binding signal (z-score within array); higher = stronger binding
Settings in all cases: glycan notation: IUPAC condensed, linker removed
[1] = target: Gal(b1-4)GlcNAc(b1-3)Gal(b1-4)GlcNAc(b1-2)Man(a1-3)[Gal(b1-4)GlcNAc(b1-3)Gal(b1-4)GlcNAc(b1-2)Man(a1-6)]Man(b1-4)GlcNAc(b1-4)[Fuc(a1-6)]GlcNAc
In short: (§1)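 Glycan array data were curated from 3228 arrays in the Consortium for Functional Glycomics database and kept only where the protein sequence was available. Glycan names were converted to IUPAC-condensed notation, and columns mapping to the same glycan were averaged. The binding signal is a within-array Z-score, averaged across arrays of the same protein sequence at different concentrations or buffers and across linkers. Negative Z-scores can be read as non-binding.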

[2] = target: Gal(b1-4)GlcNAc(b1-3)Gal(b1-4)GlcNAc(b1-2)[Gal(b1-4)GlcNAc(b1-3)Gal(b1-4)GlcNAc(b1-6)]Man(a1-6)[Gal(b1-4)GlcNAc(b1-3)Gal(b1-4)GlcNAc(b1-2)Man(a1-3)]Man(b1-4)GlcNAc(b1-4)GlcNAc
In short: as §1

[3] = target: Gal(b1-4)GlcNAc(b1-3)Gal(b1-4)GlcNAc(b1-2)[Gal(b1-4)GlcNAc(b1-3)Gal(b1-4)GlcNAc(b1-6)]Man(a1-6)[Gal(b1-4)GlcNAc(b1-3)Gal(b1-4)GlcNAc(b1-2)Man(a1-3)]Man(b1-4)GlcNAc(b1-4)[Fuc(a1-6)]GlcNAc
In short: as §1

[4] = target: Gal(b1-4)GlcNAc(b1-3)Gal(b1-4)GlcNAc(b1-3)Gal(b1-4)GlcNAc
In short: as §1

[5] = target: Gal(b1-4)GlcNAc(b1-3)Gal(b1-4)GlcNAc(b1-3)Gal(b1-4)GlcNAc(b1-2)Man(a1-3)[Gal(b1-4)GlcNAc(b1-3)Gal(b1-4)GlcNAc(b1-3)Gal(b1-4)GlcNAc(b1-2)Man(a1-6)]Man(b1-4)GlcNAc(b1-4)GlcNAc
In short: as §1

[6] = target: Gal(b1-4)GlcNAc(b1-3)Gal(b1-4)GlcNAc(b1-3)Gal(b1-4)GlcNAc(b1-2)Man(a1-3)[Gal(b1-4)GlcNAc(b1-3)Gal(b1-4)GlcNAc(b1-3)Gal(b1-4)GlcNAc(b1-2)Man(a1-6)]Man(b1-4)GlcNAc(b1-4)[Fuc(a1-6)]GlcNAc
In short: as §1

[7] = target: Gal(b1-4)GlcNAc(b1-3)Gal(b1-4)GlcNAc(b1-3)Gal(b1-4)GlcNAc(b1-2)[Gal(b1-4)GlcNAc(b1-3)Gal(b1-4)GlcNAc(b1-3)Gal(b1-4)GlcNAc(b1-6)]Man(a1-6)[Gal(b1-4)GlcNAc(b1-3)Gal(b1-4)GlcNAc(b1-3)Gal(b1-4)GlcNAc(b1-2)Man(a1-3)]Man(b1-4)GlcNAc(b1-4)[Fuc(a1-6)]GlcNAc
In short: as §1

[8] = target: Gal(b1-4)GlcNAc(b1-3)Gal(b1-4)GlcNAc(b1-3)Gal(b1-4)GlcNAc(b1-3)Gal(b1-4)GlcNAc(b1-2)Man(a1-3)[Gal(b1-4)GlcNAc(b1-3)Gal(b1-4)GlcNAc(b1-3)Gal(b1-4)GlcNAc(b1-3)Gal(b1-4)GlcNAc(b1-2)Man(a1-6)]Man(b1-4)GlcNAc(b1-4)GlcNAc
In short: as §1

[9] = target: Gal(b1-4)GlcNAc(b1-3)Gal(b1-4)GlcNAc(b1-3)Gal(b1-4)GlcNAc(b1-3)Gal(b1-4)GlcNAc(b1-2)Man(a1-3)[Gal(b1-4)GlcNAc(b1-3)Gal(b1-4)GlcNAc(b1-3)Gal(b1-4)GlcNAc(b1-3)Gal(b1-4)GlcNAc(b1-2)Man(a1-6)]Man(b1-4)GlcNAc(b1-4)[Fuc(a1-6)]GlcNAc
In short: as §1

[10] = target: Gal(b1-4)GlcNAc(b1-3)Gal(b1-4)GlcNAc(b1-3)Gal(b1-4)GlcNAc(b1-3)Gal(b1-4)GlcNAc(b1-2)[Gal(b1-4)GlcNAc(b1-3)Gal(b1-4)GlcNAc(b1-3)Gal(b1-4)GlcNAc(b1-3)Gal(b1-4)GlcNAc(b1-6)]Man(a1-6)[Gal(b1-4)GlcNAc(b1-3)Gal(b1-4)GlcNAc(b1-3)Gal(b1-4)GlcNAc(b1-3)Gal(b1-4)GlcNAc(b1-2)Man(a1-3)]Man(b1-4)GlcNAc(b1-4)[Fuc(a1-6)]GlcNAc
In short: as §1

[11] = target: Gal(b1-4)GlcNAc(b1-3)Gal(b1-4)GlcNAc(b1-3)Gal(b1-4)GlcNAc(b1-3)Gal(b1-4)GlcNAc(b1-3)Gal(b1-4)GlcNAc(b1-2)Man(a1-3)[Gal(b1-4)GlcNAc(b1-3)Gal(b1-4)GlcNAc(b1-3)Gal(b1-4)GlcNAc(b1-3)Gal(b1-4)GlcNAc(b1-3)Gal(b1-4)GlcNAc(b1-2)Man(a1-6)]Man(b1-4)GlcNAc(b1-4)GlcNAc
In short: as §1

[12] = target: Gal(b1-4)GlcNAc(b1-3)Gal(b1-4)GlcNAc(b1-3)Gal(b1-4)GlcNAc(b1-3)Gal(b1-4)GlcNAc(b1-3)Gal(b1-4)GlcNAc(b1-2)Man(a1-3)[Gal(b1-4)GlcNAc(b1-3)Gal(b1-4)GlcNAc(b1-3)Gal(b1-4)GlcNAc(b1-3)Gal(b1-4)GlcNAc(b1-3)Gal(b1-4)GlcNAc(b1-2)Man(a1-6)]Man(b1-4)GlcNAc(b1-4)[Fuc(a1-6)]GlcNAc
In short: as §1

[13] = target: Gal(b1-4)GlcNAc(b1-3)Gal(b1-4)GlcNAc(b1-3)Gal(b1-4)GlcNAc(b1-3)Gal(b1-4)GlcNAc(b1-3)Gal(b1-4)GlcNAc(b1-2)[Gal(b1-4)GlcNAc(b1-3)Gal(b1-4)GlcNAc(b1-3)Gal(b1-4)GlcNAc(b1-3)Gal(b1-4)GlcNAc(b1-3)Gal(b1-4)GlcNAc(b1-6)]Man(a1-6)[Gal(b1-4)GlcNAc(b1-3)Gal(b1-4)GlcNAc(b1-3)Gal(b1-4)GlcNAc(b1-3)Gal(b1-4)GlcNAc(b1-3)Gal(b1-4)GlcNAc(b1-2)Man(a1-3)]Man(b1-4)GlcNAc(b1-4)[Fuc(a1-6)]GlcNAc
In short: as §1

[14] = target: Gal(b1-4)GlcNAc(b1-3)Gal(b1-4)GlcNAc(b1-3)Gal(b1-4)GlcNAc(b1-3)Gal(b1-4)GlcNAc(b1-3)Gal(b1-4)GlcNAc(b1-3)Gal(b1-4)GlcNAc(b1-2)Man(a1-3)[Gal(b1-4)GlcNAc(b1-3)Gal(b1-4)GlcNAc(b1-3)Gal(b1-4)GlcNAc(b1-3)Gal(b1-4)GlcNAc(b1-3)Gal(b1-4)GlcNAc(b1-3)Gal(b1-4)GlcNAc(b1-2)Man(a1-6)]Man(b1-4)GlcNAc(b1-4)GlcNAc
In short: as §1

[15] = target: Gal(b1-4)GlcNAc(b1-3)Gal(b1-4)GlcNAc(b1-3)GalNAc
In short: as §1

[16] = target: Gal(b1-4)GlcNAc(b1-3)Gal(b1-4)GlcNAc(b1-3)[Gal(b1-4)GlcNAc(b1-3)Gal(b1-4)GlcNAc(b1-6)]GalNAc
In short: as §1

[17] = target: Gal(b1-4)GlcNAc(b1-3)Gal(b1-4)GlcNAc(b1-6)[Gal(b1-3)]GalNAc
In short: as §1

[18] = target: Gal(b1-4)GlcNAc(b1-3)Gal(b1-4)[Fuc(a1-3)]GlcNAc(b1-3)Gal(b1-4)[Fuc(a1-3)]GlcNAc
In short: as §1

[19] = target: Gal(b1-4)GlcNAc(b1-3)GalNAc
In short: as §1

[20] = target: Gal(b1-4)GlcNAc(b1-3)[Fuc(a1-3)GlcNAc(b1-6)]Gal(b1-4)Glc
In short: as §1

[21] = target: Gal(b1-4)GlcNAc(b1-3)[Gal(b1-4)GlcNAc(b1-6)]Gal(b1-4)GlcNAc
In short: as §1

[22] = target: Gal(b1-4)GlcNAc(b1-3)[GlcNAc(b1-6)]Gal(b1-4)GlcNAc
In short: as §1

B1: HA-61200 (Pseudomonas aeruginosa), Q02SP8_PSEAB (protein)
chain: MNKCYALVWNVSQGCWNVVSEGSRRRGKPAGAKAAIASVLALLGATALAPAYALPSGGTVVGGSANGEIHLSGGNSLSVNQKVDKLIANWDSFSVAAGERVIFNQPSSSSIALNRVIGTKASDIQGRIDANGQVFLVNPNGVLFGRGAQVNVGGLVASTLDITDAEFNGNSSRYRFTGPSTNGVLNHGGAITAAEGGSIALLGAQVDNRGTVLAQMGGVGLGAGSDLTLNFDGNKLLDIRVDAGVANALASNGGLLKADGGRVLMAARTANALLNTVVNSQGAIEARSLRGKNGRIVLDG
In the case of B1, the “glycan array binding signal (z-score)” value [1] is reported as 2.26, the “glycan array binding signal (z-score)” value [2] is reported as 1.46 and the “glycan array binding signal (z-score)” value [3] is reported as -0.339. For the same binder, the “glycan array binding signal (z-score)” value [4] was -0.492, the “glycan array binding signal (z-score)” value [5] was 3.1 and the “glycan array binding signal (z-score)” value [6] was 3.46. For the same binder, the “glycan array binding signal (z-score)” value [7] was 0.401, the “glycan array binding signal (z-score)” value [8] was 5.18 and the “glycan array binding signal (z-score)” value [9] was 0.484. The “glycan array binding signal (z-score)” value [10] was 1.92, the “glycan array binding signal (z-score)” value [11] was 1.63 and the “glycan array binding signal (z-score)” value [12] was 2.6. The “glycan array binding signal (z-score)” value [13] was 1.08, the “glycan array binding signal (z-score)” value [14] was 1.29 and the “glycan array binding signal (z-score)” value [15] was -0.13. The “glycan array binding signal (z-score)” value [16] was 0.642, the “glycan array binding signal (z-score)” value [17] was -0.293 and the “glycan array binding signal (z-score)” value [18] was 0.117. For the same binder, the “glycan array binding signal (z-score)” value [19] was -0.887, the “glycan array binding signal (z-score)” value [20] was -0.744 and the “glycan array binding signal (z-score)” value [21] was -0.85. For the same binder, the “glycan array binding signal (z-score)” value [22] was -0.594.
